# Data taken from the supplement of paper PMC6411743.
# Protein sequences, listed by entry. Tags and fused reporters are not part of them. Lines headed by an entry give the natural chain unless they say otherwise; changes in a name come on top.
# UniProt Q9P2N5: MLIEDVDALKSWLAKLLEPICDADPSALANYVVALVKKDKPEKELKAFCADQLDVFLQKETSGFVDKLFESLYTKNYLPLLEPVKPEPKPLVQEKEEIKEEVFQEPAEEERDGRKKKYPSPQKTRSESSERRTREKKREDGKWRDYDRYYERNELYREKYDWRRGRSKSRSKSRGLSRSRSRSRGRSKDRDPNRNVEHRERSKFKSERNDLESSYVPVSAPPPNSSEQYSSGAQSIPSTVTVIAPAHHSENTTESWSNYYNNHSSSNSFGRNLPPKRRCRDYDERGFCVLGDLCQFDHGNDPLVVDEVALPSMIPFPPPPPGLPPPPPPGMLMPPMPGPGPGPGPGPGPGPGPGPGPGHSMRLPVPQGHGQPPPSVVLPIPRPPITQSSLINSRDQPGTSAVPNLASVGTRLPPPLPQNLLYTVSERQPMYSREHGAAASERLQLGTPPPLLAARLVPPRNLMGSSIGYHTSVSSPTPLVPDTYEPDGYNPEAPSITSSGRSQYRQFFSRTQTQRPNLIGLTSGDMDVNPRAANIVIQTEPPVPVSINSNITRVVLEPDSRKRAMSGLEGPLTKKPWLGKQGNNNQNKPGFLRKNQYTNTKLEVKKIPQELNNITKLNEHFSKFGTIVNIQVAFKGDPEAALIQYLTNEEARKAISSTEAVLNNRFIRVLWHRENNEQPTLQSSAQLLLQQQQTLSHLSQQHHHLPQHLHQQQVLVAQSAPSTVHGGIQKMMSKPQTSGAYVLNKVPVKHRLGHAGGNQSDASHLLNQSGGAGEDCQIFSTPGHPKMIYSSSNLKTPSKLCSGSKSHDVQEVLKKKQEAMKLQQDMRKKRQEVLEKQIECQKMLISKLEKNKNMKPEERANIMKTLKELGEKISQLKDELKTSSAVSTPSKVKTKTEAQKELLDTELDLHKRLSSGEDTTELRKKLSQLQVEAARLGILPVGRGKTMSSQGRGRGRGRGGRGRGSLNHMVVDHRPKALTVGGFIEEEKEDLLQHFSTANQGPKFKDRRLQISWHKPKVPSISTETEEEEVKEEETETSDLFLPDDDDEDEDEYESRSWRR
# UniProt Q9UBI9: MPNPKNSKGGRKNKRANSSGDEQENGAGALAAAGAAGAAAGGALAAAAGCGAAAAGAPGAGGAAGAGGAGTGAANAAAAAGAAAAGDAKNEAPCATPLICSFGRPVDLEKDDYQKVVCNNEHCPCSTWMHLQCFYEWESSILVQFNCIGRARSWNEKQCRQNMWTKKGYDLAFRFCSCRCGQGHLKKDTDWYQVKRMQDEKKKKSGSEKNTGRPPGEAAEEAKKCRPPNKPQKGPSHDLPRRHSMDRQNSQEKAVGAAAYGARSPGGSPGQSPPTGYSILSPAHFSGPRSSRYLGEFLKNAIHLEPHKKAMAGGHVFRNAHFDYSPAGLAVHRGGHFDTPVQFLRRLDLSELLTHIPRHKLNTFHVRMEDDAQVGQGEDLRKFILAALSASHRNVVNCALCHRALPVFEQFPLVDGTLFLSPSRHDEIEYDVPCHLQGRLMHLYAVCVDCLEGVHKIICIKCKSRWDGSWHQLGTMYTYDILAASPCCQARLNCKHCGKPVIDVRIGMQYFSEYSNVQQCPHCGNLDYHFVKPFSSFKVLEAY
# UniProt Q9UBM7: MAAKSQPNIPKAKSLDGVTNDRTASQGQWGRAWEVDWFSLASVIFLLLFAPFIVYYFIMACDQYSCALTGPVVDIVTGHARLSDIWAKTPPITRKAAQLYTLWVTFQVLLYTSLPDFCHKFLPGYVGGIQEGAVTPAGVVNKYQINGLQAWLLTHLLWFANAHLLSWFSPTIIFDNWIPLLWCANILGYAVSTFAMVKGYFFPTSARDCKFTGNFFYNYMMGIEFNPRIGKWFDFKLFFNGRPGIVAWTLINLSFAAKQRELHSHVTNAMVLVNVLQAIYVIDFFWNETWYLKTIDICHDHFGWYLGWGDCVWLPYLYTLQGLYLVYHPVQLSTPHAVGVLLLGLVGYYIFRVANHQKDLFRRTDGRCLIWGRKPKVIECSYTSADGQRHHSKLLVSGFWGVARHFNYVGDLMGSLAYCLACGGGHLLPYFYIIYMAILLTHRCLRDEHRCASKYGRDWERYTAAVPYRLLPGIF
# UniProt Q9UL26: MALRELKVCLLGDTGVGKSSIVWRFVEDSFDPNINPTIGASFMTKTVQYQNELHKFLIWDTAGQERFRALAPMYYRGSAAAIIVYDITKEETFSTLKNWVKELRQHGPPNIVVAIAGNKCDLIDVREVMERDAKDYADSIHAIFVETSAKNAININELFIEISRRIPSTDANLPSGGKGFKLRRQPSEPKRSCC
# UniProt Q9UJ68: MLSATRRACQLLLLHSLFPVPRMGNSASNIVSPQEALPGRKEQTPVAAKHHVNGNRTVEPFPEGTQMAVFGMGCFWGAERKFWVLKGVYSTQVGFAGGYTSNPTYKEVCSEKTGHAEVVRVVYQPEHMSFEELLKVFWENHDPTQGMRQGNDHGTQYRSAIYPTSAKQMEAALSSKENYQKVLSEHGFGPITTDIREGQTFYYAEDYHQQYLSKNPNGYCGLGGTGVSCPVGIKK
# UniProt Q9UBB9: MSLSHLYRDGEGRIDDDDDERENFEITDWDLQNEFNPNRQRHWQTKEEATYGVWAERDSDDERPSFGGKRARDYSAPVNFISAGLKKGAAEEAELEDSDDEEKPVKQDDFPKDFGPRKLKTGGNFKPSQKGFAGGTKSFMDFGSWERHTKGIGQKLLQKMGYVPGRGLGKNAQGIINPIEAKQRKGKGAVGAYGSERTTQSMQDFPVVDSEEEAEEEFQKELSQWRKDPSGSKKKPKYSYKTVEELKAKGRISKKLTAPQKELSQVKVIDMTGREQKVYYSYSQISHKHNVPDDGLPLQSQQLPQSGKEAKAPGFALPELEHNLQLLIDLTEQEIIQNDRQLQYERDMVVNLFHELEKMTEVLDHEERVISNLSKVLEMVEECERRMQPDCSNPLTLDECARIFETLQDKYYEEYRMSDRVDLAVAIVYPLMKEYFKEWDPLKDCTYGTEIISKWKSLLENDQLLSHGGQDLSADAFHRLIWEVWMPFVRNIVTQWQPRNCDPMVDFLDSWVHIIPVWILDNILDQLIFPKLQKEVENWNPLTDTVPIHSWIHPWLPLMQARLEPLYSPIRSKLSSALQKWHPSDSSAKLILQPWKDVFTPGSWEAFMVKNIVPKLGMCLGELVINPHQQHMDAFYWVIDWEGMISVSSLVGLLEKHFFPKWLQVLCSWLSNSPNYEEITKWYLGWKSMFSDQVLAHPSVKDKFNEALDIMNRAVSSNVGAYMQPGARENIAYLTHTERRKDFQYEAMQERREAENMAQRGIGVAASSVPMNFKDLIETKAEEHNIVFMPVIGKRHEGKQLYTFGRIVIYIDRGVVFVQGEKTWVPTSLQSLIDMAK
# UniProt Q9UBF6, whole entry: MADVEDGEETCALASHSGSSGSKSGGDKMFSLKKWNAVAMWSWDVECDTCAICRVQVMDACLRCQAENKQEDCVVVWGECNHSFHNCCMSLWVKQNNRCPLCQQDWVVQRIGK
# UniProt Q9UPN7: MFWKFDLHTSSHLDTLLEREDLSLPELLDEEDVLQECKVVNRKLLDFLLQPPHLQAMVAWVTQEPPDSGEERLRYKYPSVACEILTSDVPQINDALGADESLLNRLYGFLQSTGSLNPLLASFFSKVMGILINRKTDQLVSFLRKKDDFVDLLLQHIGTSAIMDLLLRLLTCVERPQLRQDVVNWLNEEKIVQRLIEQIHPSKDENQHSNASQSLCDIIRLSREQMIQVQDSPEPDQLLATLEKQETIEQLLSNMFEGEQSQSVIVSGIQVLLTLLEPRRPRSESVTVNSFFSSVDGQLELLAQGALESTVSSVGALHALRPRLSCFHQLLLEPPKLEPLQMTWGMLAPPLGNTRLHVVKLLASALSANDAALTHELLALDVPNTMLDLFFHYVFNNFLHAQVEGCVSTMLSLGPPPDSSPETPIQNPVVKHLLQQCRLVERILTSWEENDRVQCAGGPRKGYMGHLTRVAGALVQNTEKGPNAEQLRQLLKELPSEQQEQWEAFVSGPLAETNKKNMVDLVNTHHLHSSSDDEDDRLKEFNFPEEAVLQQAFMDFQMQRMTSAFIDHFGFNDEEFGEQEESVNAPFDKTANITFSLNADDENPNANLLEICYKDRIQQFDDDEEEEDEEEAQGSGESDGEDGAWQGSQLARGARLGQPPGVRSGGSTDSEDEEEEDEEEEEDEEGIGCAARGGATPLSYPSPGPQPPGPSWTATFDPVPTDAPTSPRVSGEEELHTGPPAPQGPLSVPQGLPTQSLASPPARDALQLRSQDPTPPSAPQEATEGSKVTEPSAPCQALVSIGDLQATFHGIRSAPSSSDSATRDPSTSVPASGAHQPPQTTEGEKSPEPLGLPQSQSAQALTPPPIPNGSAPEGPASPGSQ
# UniProt Q9UKU7: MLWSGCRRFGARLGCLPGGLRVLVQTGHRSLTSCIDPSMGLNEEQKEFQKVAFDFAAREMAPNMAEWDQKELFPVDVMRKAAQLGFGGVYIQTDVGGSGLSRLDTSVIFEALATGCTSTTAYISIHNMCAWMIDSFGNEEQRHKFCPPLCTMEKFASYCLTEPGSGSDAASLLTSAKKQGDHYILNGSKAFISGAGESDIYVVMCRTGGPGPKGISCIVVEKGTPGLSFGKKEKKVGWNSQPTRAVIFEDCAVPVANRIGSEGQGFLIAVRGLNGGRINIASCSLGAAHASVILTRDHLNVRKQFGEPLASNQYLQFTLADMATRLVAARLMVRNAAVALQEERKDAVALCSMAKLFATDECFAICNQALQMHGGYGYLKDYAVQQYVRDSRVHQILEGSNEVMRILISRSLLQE
# UniProt Q9UNW1: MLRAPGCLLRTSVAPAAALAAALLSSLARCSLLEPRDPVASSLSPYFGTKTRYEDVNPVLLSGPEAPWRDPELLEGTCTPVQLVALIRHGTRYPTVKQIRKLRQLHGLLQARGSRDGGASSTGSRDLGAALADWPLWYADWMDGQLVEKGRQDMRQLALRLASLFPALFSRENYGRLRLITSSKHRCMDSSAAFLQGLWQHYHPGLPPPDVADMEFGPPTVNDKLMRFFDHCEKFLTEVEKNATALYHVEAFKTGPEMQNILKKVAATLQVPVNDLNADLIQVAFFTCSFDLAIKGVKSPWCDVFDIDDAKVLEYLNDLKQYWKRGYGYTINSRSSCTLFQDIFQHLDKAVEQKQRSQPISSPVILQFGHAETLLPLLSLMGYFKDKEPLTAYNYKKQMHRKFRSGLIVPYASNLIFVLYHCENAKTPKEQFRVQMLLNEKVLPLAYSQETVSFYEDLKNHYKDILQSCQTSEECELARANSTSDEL
# UniProt Q9ULC3: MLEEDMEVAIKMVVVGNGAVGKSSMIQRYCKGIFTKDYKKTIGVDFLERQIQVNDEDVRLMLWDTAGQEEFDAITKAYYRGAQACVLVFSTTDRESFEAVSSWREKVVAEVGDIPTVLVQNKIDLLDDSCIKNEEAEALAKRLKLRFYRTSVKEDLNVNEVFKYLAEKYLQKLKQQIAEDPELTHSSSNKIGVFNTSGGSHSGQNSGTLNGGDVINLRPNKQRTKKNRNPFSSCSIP
# UniProt Q9ULW3: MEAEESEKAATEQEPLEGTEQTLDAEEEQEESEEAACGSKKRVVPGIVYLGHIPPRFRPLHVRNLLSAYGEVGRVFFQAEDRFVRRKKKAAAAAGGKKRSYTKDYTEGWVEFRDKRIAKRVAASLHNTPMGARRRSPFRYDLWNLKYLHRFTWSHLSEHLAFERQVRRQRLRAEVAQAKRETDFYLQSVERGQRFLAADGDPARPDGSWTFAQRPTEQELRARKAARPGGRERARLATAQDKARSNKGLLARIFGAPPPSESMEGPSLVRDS
# UniProt Q9UGP4: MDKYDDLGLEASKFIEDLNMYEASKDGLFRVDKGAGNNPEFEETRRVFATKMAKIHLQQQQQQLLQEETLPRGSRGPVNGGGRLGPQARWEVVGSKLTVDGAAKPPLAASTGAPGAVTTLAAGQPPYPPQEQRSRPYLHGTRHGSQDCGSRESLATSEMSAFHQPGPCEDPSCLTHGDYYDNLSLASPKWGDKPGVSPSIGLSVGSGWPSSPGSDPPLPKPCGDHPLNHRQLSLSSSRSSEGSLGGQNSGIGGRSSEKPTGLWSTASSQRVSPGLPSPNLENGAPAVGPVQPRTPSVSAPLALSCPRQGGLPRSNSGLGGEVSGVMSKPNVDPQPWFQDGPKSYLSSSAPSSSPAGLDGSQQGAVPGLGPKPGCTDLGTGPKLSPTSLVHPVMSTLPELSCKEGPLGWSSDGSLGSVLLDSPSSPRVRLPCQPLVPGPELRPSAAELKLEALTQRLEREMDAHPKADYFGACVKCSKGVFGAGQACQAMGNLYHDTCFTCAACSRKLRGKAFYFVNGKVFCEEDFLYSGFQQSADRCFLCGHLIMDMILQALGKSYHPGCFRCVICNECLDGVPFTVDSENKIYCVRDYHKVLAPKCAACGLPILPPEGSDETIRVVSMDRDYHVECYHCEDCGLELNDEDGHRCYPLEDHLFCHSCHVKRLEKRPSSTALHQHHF
# ± gives the standard deviation of the averaged measurements. The list shows a part of the results, in another mix than the full data. Small differences around the control level are noise.
# Compound: Nc1ncnc2c1ncn2[C@@H]1O[C@H](COP(=O)(O)OP(=O)(O)OP(=O)(O)O)[C@@H](O)[C@H]1O [adenosine triphosphate]
# Assay: NP40-soluble protein abundance relative to vehicle (solubility fold change) (ratio); higher = more soluble protein in presence of ATP
# In short: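 In three independent experiments, Jurkat crude lysate made by Dounce homogenisation was treated for 10 min at room temperature and then 3 min at 37 °C with eight concentrations ranging from 0.1 to 10 mM. It was then solubilised with 0.8% NP40 plus benzonase for 60 min at 4 °C and ultracentrifuged. The supernatant was TMT-labelled for LC-MS/MS, and each value is the fold change against the detergent-processed vehicle for the same replicate, using vsn-normalised intensities.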
target,measurement,setting,value
MED13 (UniProt Q9UHV7),NP40-soluble protein abundance,concentration: 0.1mM,1.2 ± 0.11
same,NP40-soluble protein abundance,concentration: 0.5mM,1.13 ± 0.091
NOTCH3 (UniProt Q9UM47),NP40-soluble protein abundance,concentration: 0.1mM,0.864 ± 0.045
same,NP40-soluble protein abundance,concentration: 0.5mM,0.85 ± 0.074
CCNL1 (UniProt Q9UK58),NP40-soluble protein abundance,concentration: 0.1mM,1.04 ± 0.034
same,NP40-soluble protein abundance,concentration: 0.5mM,1.11 ± 0.076
RBM27 (UniProt Q9P2N5),NP40-soluble protein abundance,concentration: 0.1mM,1.04 ± 0.018
same,NP40-soluble protein abundance,concentration: 0.5mM,1.39 ± 0.035
HECA (UniProt Q9UBI9),NP40-soluble protein abundance,concentration: 0.1mM,1.05 ± 0.026
same,NP40-soluble protein abundance,concentration: 0.5mM,1.05 ± 0.21
DHCR7 (UniProt Q9UBM7),NP40-soluble protein abundance,concentration: 0.1mM,1.01 ± 0.048
same,NP40-soluble protein abundance,concentration: 0.5mM,0.977 ± 0.029
AKAP11 (UniProt Q9UKA4),NP40-soluble protein abundance,concentration: 0.1mM,1.01 ± 0.021
same,NP40-soluble protein abundance,concentration: 0.5mM,0.99 ± 0.035
UBQLN1 (UniProt Q9UMX0),NP40-soluble protein abundance,concentration: 0.1mM,0.879 ± 0.11
same,NP40-soluble protein abundance,concentration: 0.5mM,0.851 ± 0.12
ASF1A (UniProt Q9Y294),NP40-soluble protein abundance,concentration: 0.1mM,1.08 ± 0.12
same,NP40-soluble protein abundance,concentration: 0.5mM,1.07 ± 0.082
RAB22A (UniProt Q9UL26),NP40-soluble protein abundance,concentration: 0.1mM,0.962 ± 0.085
same,NP40-soluble protein abundance,concentration: 0.5mM,1 ± 0.068
UniProt Q9UNS1 and related entries,NP40-soluble protein abundance,concentration: 0.1mM,1.01 ± 0.031
same,NP40-soluble protein abundance,concentration: 0.5mM,1.01 ± 0.041
UniProt Q9UK61 and related entries,NP40-soluble protein abundance,concentration: 0.1mM,1.03 ± 0.019
same,NP40-soluble protein abundance,concentration: 0.5mM,1.08 ± 0.045
SARDH (UniProt Q9UL12),NP40-soluble protein abundance,concentration: 0.1mM,1.03 ± 0.028
same,NP40-soluble protein abundance,concentration: 0.5mM,1.06 ± 0.055
UniProt Q9UJ83 and related entries,NP40-soluble protein abundance,concentration: 0.1mM,1.02 ± 0.071
same,NP40-soluble protein abundance,concentration: 0.5mM,0.995 ± 0.027
UniProt Q9UJ68 and related entries,NP40-soluble protein abundance,concentration: 0.1mM,1.06 ± 0.075
same,NP40-soluble protein abundance,concentration: 0.5mM,1.03 ± 0.1
TFIP11 (UniProt Q9UBB9),NP40-soluble protein abundance,concentration: 0.1mM,1.02 ± 0.044
same,NP40-soluble protein abundance,concentration: 0.5mM,1.07 ± 0.045
RNF7 (UniProt Q9UBF6),NP40-soluble protein abundance,concentration: 0.1mM,1.19 ± 0.25
same,NP40-soluble protein abundance,concentration: 0.5mM,0.956 ± 0.076
UniProt Q9ULH7-4|Q9ULH7-5,NP40-soluble protein abundance,concentration: 0.1mM,0.978 ± 0.043
same,NP40-soluble protein abundance,concentration: 0.5mM,1 ± 0.087
MRPS33 (UniProt Q9Y291),NP40-soluble protein abundance,concentration: 0.1mM,0.942 ± 0.22
same,NP40-soluble protein abundance,concentration: 0.5mM,0.973 ± 0.24
UniProt Q9UPN7,NP40-soluble protein abundance,concentration: 0.1mM,0.972 ± 0.03
same,NP40-soluble protein abundance,concentration: 0.5mM,0.959 ± 0.037
same,NP40-soluble protein abundance,concentration: 1mM,0.945 ± 0.014
same,NP40-soluble protein abundance,concentration: 2mM,0.941 ± 0.046
same,NP40-soluble protein abundance,concentration: 4mM,0.941 ± 0.029
same,NP40-soluble protein abundance,concentration: 6mM,0.917 ± 0.041
same,NP40-soluble protein abundance,concentration: 8mM,0.924 ± 0.018
same,NP40-soluble protein abundance,concentration: 10mM,0.93 ± 0.037
ACAD8 (UniProt Q9UKU7),NP40-soluble protein abundance,concentration: 0.1mM,1.06 ± 0.037
same,NP40-soluble protein abundance,concentration: 0.5mM,1.04 ± 0.06
same,NP40-soluble protein abundance,concentration: 1mM,1.01 ± 0.049
same,NP40-soluble protein abundance,concentration: 2mM,1 ± 0.064
same,NP40-soluble protein abundance,concentration: 4mM,0.988 ± 0.033
same,NP40-soluble protein abundance,concentration: 6mM,0.961 ± 0.058
same,NP40-soluble protein abundance,concentration: 8mM,0.983 ± 0.029
same,NP40-soluble protein abundance,concentration: 10mM,0.99 ± 0.038
MINPP1 (UniProt Q9UNW1),NP40-soluble protein abundance,concentration: 0.1mM,0.99 ± 0.027
same,NP40-soluble protein abundance,concentration: 0.5mM,1 ± 0.014
RAB23 (UniProt Q9ULC3),NP40-soluble protein abundance,concentration: 0.1mM,1.05 ± 0.022
same,NP40-soluble protein abundance,concentration: 0.5mM,1.02 ± 0.054
UniProt Q9UM21,NP40-soluble protein abundance,concentration: 0.1mM,1.04 ± 0.062
same,NP40-soluble protein abundance,concentration: 0.5mM,1.09 ± 0.067
ABT1 (UniProt Q9ULW3),NP40-soluble protein abundance,concentration: 0.1mM,1.02 ± 0.069
same,NP40-soluble protein abundance,concentration: 0.5mM,0.986 ± 0.051
UniProt Q9UGP4 and related entries,NP40-soluble protein abundance,concentration: 0.1mM,1.02 ± 0.036
same,NP40-soluble protein abundance,concentration: 0.5mM,1.02 ± 0.03

# Reformatted with tabs: entries from further up.
target	measurement	setting	value
TFIP11 (UniProt Q9UBB9)	NP40-soluble protein abundance	concentration: 0.1mM	1.02 ± 0.044
same	NP40-soluble protein abundance	concentration: 0.5mM	1.07 ± 0.045
RNF7 (UniProt Q9UBF6)	NP40-soluble protein abundance	concentration: 0.1mM	1.19 ± 0.25
